# No constants are given. Whether binding was seen depends on the method and setting. Some entries that bind do so weakly or less than the wild type.
# By UniProt entry, the sequences of proteins in these tests, tags left out.
# UniProt P05413: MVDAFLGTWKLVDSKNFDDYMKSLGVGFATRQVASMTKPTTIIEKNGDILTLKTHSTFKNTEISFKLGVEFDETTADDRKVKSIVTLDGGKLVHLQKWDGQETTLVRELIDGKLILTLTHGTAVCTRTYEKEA
# Target: FABP3/MDGI-GFP fusion protein in U87MG glioblastoma cells (UniProt P05413)
# Assay: fluorescence microscopy of labelled peptide on cells; TAMRA-labelled peptides at 1 µg/mL in serum-free medium for 60 min on U87MG cells expressing FABP3-GFP or GFP, washed, fixed with PFA, imaged; binding and internalisation; only the binder purified
row,Binder,binding
1,ACGLSALGVA (5(6)-carboxytetramethylrhodamine (TAMRA) on the N-terminus; C-terminal amide) [TAMRA- A-[Ala^5]CooP],no binding (tested: 1 µg/mL)
2,ACGLSGLGVA (5(6)-carboxytetramethylrhodamine (TAMRA) on the N-terminus; C-terminal amide) [TAMRA-A-CooP],binds

# The next lines start with the values.
row,binding,Binder
1,binds,ACGLSGLGVAK (5(6)-carboxytetramethylrhodamine (TAMRA) on the N-terminus; C-terminal amide) [TAMRA-A-CooP-K]
2,no binding (tested: 1 µg/mL),CVAALNADG (TAMRA on the N-terminus) [TAMRA-Negative control]

# From publication PMC7409020, “Tumor-Targeting Peptides: The Functional Screen of Glioblastoma Homing Peptides to the Target Protein FABP3 (MDGI)” (Cancers, 2020)
